{"source": "PubChem BioAssay AID1259308 (NCATS, 2017)", "screen": "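Genes whose loss raises luciferase production in HEK293 cells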 (primary screen)", "cell system": "human HEK293 embryonic kidney cells stably expressing firefly luciferase (HEK-CMV-Luc2-Hygro)", "reagents": "single siRNA against human genes, 0.8 pmol siRNA per well", "duration": "72 h", "measurement": "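Reporter luminescence and viable-cell signal on separate replicate plates, given as percent of non-targeting control and median/MAD z-scores, plus per-cell luciferase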", "direction": "total luciferase, z-score: higher = more reporter protein produced", "rule for the call": "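An siRNA counts as active if its total luciferase robust z-score exceeds 3; genes with two or more such siRNAs out of three were retested with fresh siRNAs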", "calls": "active = raised luciferase; inactive = no rise", "note": "The whole screen tested about 59,000 reagents; below is an unselected part. Of all reagents, about 1,510 (2.6%) are marked active. 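Calls use total luciferase alone and ignore viability, so some active siRNAs may act by altering cell number.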 A number with no mark means an inactive call. The numbers tell different reagents against one gene apart. Further read-outs or replicates are left out here. No sequences are given here."}
{"Gene":"PLA2G4C","siRNA no.":1,"total luciferase, z-score":-0.0648}
{"Gene":"PLA2G4C","siRNA no.":2,"total luciferase, z-score":0.816}
{"Gene":"PLA2G4C","siRNA no.":3,"total luciferase, z-score":0.201}
{"Gene":"ACTG2","siRNA no.":1,"total luciferase, z-score":"3.72 (active)"}
{"Gene":"ACTG2","siRNA no.":2,"total luciferase, z-score":-0.0303}
{"Gene":"ACTG2","siRNA no.":3,"total luciferase, z-score":-1.15}
{"Gene":"SMO","siRNA no.":1,"total luciferase, z-score":-0.0991}
{"Gene":"SMO","siRNA no.":2,"total luciferase, z-score":-0.0773}
{"Gene":"SMO","siRNA no.":3,"total luciferase, z-score":0.0578}
{"Gene":"MSN","siRNA no.":1,"total luciferase, z-score":-1.34}
{"Gene":"MSN","siRNA no.":2,"total luciferase, z-score":-1.31}
{"Gene":"MSN","siRNA no.":3,"total luciferase, z-score":"4.99 (active)"}
{"Gene":"FBXO10","siRNA no.":1,"total luciferase, z-score":0.413}
{"Gene":"FBXO10","siRNA no.":2,"total luciferase, z-score":0.595}
{"Gene":"FBXO10","siRNA no.":3,"total luciferase, z-score":-0.875}
{"Gene":"KCNH6","siRNA no.":1,"total luciferase, z-score":-0.399}
{"Gene":"KCNH6","siRNA no.":2,"total luciferase, z-score":1.49}
{"Gene":"KCNH6","siRNA no.":3,"total luciferase, z-score":-0.582}
{"Gene":"ZNF664","siRNA no.":1,"total luciferase, z-score":0.18}
{"Gene":"ZNF664","siRNA no.":2,"total luciferase, z-score":-0.47}
{"Gene":"ZNF664","siRNA no.":3,"total luciferase, z-score":-0.113}

Taken from above.
Result of FBXO10 #2 under “total luciferase, z-score”: 0.595
Entry for FBXO10 #1 under “total luciferase, z-score”: 0.413
SMO #2, total luciferase, z-score → -0.0773
